Counter-ions that a name gives are not always drawn. This is one part of the list. Many values rest on one well or one pass, so single values are uncertain.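 Three clinical Candida auris isolates (clades III, IV and I) from the CDC resistance isolate bank were grown in RPMI-1640 at 35°C. Growth was background-corrected OD600 relative to same-plate vehicle-only wells. Hits required over 50% inhibition in at least two strains and a plate-corrected B-score above 0.1.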
What was measured:
Assay in all cases: growth relative to vehicle control (OD600 ratio) (fraction); higher = less inhibition
Conditions in all cases: 24 h
C. auris AR-384 = system: C. auris AR-384
C. auris AR-386 = system: C. auris AR-386
C. auris AR-387 = system: C. auris AR-387

Compound	growth (C. auris AR-384; 1 µM)	growth (C. auris AR-384; 10 µM)	growth (C. auris AR-386; 1 µM)	growth (C. auris AR-386; 10 µM)	growth (C. auris AR-387; 1 µM)	growth (C. auris AR-387; 10 µM)
CC[C@H]1OC(=O)C[C@@H](O)[C@H](C)[C@@H](O[C@@H]2O[C@H](C)[C@@H](O)[C@H](N(C)C)[C@H]2O)[C@@H](CCN2C[C@H](C)C[C@H](C)C2)C[C@@H](C)C(=O)/C=C/C(C)=C/[C@@H]1CO[C@@H]1O[C@H](C)[C@@H](O)[C@@H](OC)[C@H]1OC [Tilmicosin]	0.82	0.78	1	0.56	0.63	0.69
CCCc1nc2c(C)cc(-c3nc4ccccc4n3C)cc2n1Cc1ccc(-c2ccccc2C(=O)O)cc1 [Telmisartan]	1.34	1.12	0.96	0.87	0.87	0.74
O=[N+]([O-])c1ccc(O)c2ncccc12 [Nitroxoline]	0.8	0.26	0.6	0.08	0.04	0.04
C[N+](C)(C)CCOC(N)=O [Carbachol]	1.23	1.29	1.01	0.9	0.98	0.98
Clc1ccc2nsnc2c1NC1=NCCN1 [Tizanidine HCl]	0.91	0.58	0.54	1.11	0.89	0.99
CCCCOC(=O)c1ccc(O)cc1 [Butylparaben]	1.1	1.01	0.96	0.8	1	0.88
Oc1cccc(O)c1 [Resorcinol]	1.01	0.84	0.68	0.91	0.76	0.87
Brc1c(NC2=NCCN2)ccc2nccnc12 [Brimonidine Tartrate]	0.83	0.76	0.67	0.77	0.57	0.76
CCCCCCCCCCC[C@@H](C[C@@H]1OC(=O)[C@H]1CCCCCC)OC(=O)[C@H](CC(C)C)NC=O [Orlistat]	0.96	0.54	0.62	1	0.92	0.72
Cc1ccccc1N1C(=O)c2cc(S(N)(=O)=O)c(Cl)cc2NC1C (stereo unspecified) [Metolazone]	1.19	1.11	1.2	0.73	1.02	0.68
Clc1ccc(C(c2ccccc2Cl)C(Cl)Cl)cc1 (stereo unspecified) [Mitotane]	0.91	1.09	1.24	1.24	1	1.05
O=C(O)c1cc(/N=N/c2ccc(S(=O)(=O)Nc3ccccn3)cc2)ccc1O [Sulfasalazine]	0.84	1.34	1.35	1.1	1.33	1.29
COc1ccccc1OCC(O)COC(N)=O (stereo unspecified) [Methocarbamol]	1	1.24	1.02	0.9	0.77	0.89
CC(C)NCC(O)c1ccc(NS(C)(=O)=O)cc1 (stereo unspecified) [Sotalol HCl]	0.76	0.76	0.58	0.77	0.94	0.72
C[C@]1(c2nc3c(C(N)=O)cccc3[nH]2)CCCN1 [Veliparib (ABT-888)]	0.83	0.61	0.52	0.82	0.73	0.61
C=CC1=C(C(=O)O)N2C(=O)[C@@H](NC(=O)/C(=N\OCC(=O)O)c3csc(N)n3)[C@H]2SC1 [Cefixime]	1.15	1.41	1.28	1	0.91	0.97

Compound	growth (C. auris AR-384; 1 µM)	growth (C. auris AR-384; 10 µM)	growth (C. auris AR-386; 1 µM)	growth (C. auris AR-386; 10 µM)	growth (C. auris AR-387; 1 µM)	growth (C. auris AR-387; 10 µM)
c1cn2cc(-c3ccc4cn[nH]c4c3)nc(Nc3ccc(N4CCOCC4)cc3)c2n1 [Entospletinib (GS-9973)]	0.89	0.9	0.82	1.29	1.14	0.83
CCN(CCO)CCCC(C)Nc1ccnc2cc(Cl)ccc12 (stereo unspecified) [Hydroxychloroquine Sulfate]	0.78	1.19	0.94	1.11	0.83	0.98
OCCN1CCN(CC/C=C2/c3ccccc3Sc3ccc(C(F)(F)F)cc32)CC1 [Flupenthixol dihydrochloride]	0.94	1.2	0.94	1.06	0.93	1.11
COc1ccc(-n2nc(C(N)=O)c3c2C(=O)N(c2ccc(N4CCCCC4=O)cc2)CC3)cc1 [Apixaban]	1.05	1.29	1.32	0.87	0.97	0.85
Cc1ccc([C@@H]2O[C@H](CO)[C@@H](O)[C@H](O)[C@H]2O)cc1Cc1ccc(-c2ccc(F)cc2)s1 [Canagliflozin]	1.43	1.03	0.91	0.99	0.97	0.98
C=CCNC1=C2C[C@@H](C)C[C@H](OC)[C@H](O)[C@@H](C)/C=C(\C)[C@H](OC(N)=O)[C@@H](OC)/C=C\C=C(/C)C(=O)NC(=CC1=O)C2=O [Tanespimycin (17-AAG)]	1.02	0.94	0.93	0.99	0.86	1.18
O=C(Nc1ccccc1)OCC(CN1CCCCC1)OC(=O)Nc1ccccc1 (stereo unspecified) [Diperodon HCl]	0.87	0.73	0.77	0.63	0.63	0.6
CC[C@@H]([C@H](C)O)n1ncn(-c2ccc(N3CCN(c4ccc(OC[C@@H]5CO[C@@](Cn6cncn6)(c6ccc(F)cc6F)C5)cc4)CC3)cc2)c1=O [Posaconazole]	0.32	0.35	0.08	0.07	0.04	0.05
CC(S)C(=O)NCC(=O)O (stereo unspecified) [Tiopronin]	1.11	1.07	1.21	0.96	0.81	0.79
C[C@]12CC[C@@H]3c4ccc(O)cc4CC[C@H]3[C@@H]1CCC2=O [Estrone]	0.96	0.59	0.57	0.95	0.81	0.84
COc1ccc2cc(CCC(C)=O)ccc2c1 [Nabumetone]	0.97	0.82	0.93	0.86	0.8	0.9
CC(=O)CCCCn1c(=O)c2c(ncn2C)n(C)c1=O [Pentoxifylline]	0.74	0.78	0.93	0.75	0.74	0.47
N=C(NCCCCCCNC(=N)NC(=N)Nc1ccc(Cl)cc1)NC(=N)Nc1ccc(Cl)cc1 [Chlorhexidine 2HCl]	0.98	0.94	1.19	1.05	1.22	1
COc1ccc(/C=C/C(=O)Nc2ccccc2C(=O)O)cc1OC [Tranilast]	0.71	0.53	0.71	1.24	0.75	0.65
CC(C)C[C@H](NC(=O)[C@H](CCc1ccccc1)NC(=O)CN1CCOCC1)C(=O)N[C@@H](Cc1ccccc1)C(=O)N[C@@H](CC(C)C)C(=O)[C@@]1(C)CO1 [Carfilzomib (PR-171)]	1.02	0.61	0.72	0.92	0.96	1.08

Eight compounds from above, arranged by length of the SMILES, falling.
Compound	growth (C. auris AR-384; 1 µM)	growth (C. auris AR-384; 10 µM)	growth (C. auris AR-386; 1 µM)	growth (C. auris AR-386; 10 µM)	growth (C. auris AR-387; 1 µM)	growth (C. auris AR-387; 10 µM)
CC(C)C[C@H](NC(=O)[C@H](CCc1ccccc1)NC(=O)CN1CCOCC1)C(=O)N[C@@H](Cc1ccccc1)C(=O)N[C@@H](CC(C)C)C(=O)[C@@]1(C)CO1 [Carfilzomib (PR-171)]	1.02	0.61	0.72	0.92	0.96	1.08
CC[C@@H]([C@H](C)O)n1ncn(-c2ccc(N3CCN(c4ccc(OC[C@@H]5CO[C@@](Cn6cncn6)(c6ccc(F)cc6F)C5)cc4)CC3)cc2)c1=O [Posaconazole]	0.32	0.35	0.08	0.07	0.04	0.05
COc1ccc(-n2nc(C(N)=O)c3c2C(=O)N(c2ccc(N4CCCCC4=O)cc2)CC3)cc1 [Apixaban]	1.05	1.29	1.32	0.87	0.97	0.85
N=C(NCCCCCCNC(=N)NC(=N)Nc1ccc(Cl)cc1)NC(=N)Nc1ccc(Cl)cc1 [Chlorhexidine 2HCl]	0.98	0.94	1.19	1.05	1.22	1
c1cn2cc(-c3ccc4cn[nH]c4c3)nc(Nc3ccc(N4CCOCC4)cc3)c2n1 [Entospletinib (GS-9973)]	0.89	0.9	0.82	1.29	1.14	0.83
O=C(Nc1ccccc1)OCC(CN1CCCCC1)OC(=O)Nc1ccccc1 (stereo unspecified) [Diperodon HCl]	0.87	0.73	0.77	0.63	0.63	0.6
CCN(CCO)CCCC(C)Nc1ccnc2cc(Cl)ccc12 (stereo unspecified) [Hydroxychloroquine Sulfate]	0.78	1.19	0.94	1.11	0.83	0.98
COc1ccc2cc(CCC(C)=O)ccc2c1 [Nabumetone]	0.97	0.82	0.93	0.86	0.8	0.9
